# Screening data, single-dose tests

Sequences of proteins named here, by UniProt entry; tags and fusion partners are left off. Residues count along the entry.
UniProt Q8IDJ8, 1-583: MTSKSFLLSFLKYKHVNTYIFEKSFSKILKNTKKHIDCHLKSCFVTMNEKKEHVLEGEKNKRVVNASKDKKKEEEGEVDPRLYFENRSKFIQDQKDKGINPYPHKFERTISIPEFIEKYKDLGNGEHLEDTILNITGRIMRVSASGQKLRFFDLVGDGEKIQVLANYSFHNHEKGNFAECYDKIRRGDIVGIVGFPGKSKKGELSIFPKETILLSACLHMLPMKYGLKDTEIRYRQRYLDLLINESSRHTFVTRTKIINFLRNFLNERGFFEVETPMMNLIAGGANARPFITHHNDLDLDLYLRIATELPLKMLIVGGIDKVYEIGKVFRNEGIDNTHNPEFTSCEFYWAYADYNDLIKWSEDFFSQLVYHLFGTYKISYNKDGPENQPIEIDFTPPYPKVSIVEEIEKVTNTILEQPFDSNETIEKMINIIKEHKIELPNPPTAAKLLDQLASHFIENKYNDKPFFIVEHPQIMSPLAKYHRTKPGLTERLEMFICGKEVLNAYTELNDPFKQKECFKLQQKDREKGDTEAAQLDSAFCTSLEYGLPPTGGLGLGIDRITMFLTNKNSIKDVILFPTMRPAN
UniProt A4I591, 1-473: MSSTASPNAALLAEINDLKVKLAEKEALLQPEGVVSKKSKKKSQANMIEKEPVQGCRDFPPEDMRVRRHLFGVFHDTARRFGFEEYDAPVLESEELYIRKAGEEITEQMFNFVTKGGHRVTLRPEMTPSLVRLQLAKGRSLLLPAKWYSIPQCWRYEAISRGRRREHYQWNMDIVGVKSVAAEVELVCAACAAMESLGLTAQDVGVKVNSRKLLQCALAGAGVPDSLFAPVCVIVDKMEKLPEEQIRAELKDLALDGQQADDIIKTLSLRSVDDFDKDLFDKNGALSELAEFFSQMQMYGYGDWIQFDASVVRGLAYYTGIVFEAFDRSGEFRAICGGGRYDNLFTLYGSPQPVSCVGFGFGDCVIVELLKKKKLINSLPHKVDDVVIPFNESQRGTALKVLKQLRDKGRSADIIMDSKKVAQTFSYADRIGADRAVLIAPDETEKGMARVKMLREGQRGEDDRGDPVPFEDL

The values are deposited in ChEMBL (CHEMBL3988442, “University of Dundee, Small-Polar-MMV Screening Library” (2021)).

A: 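Whole-parasite assay of Trypanosoma brucei over 72 hours; the read-out is not stated. Concentration: 30 µM. The record gives no direction; compounds that gave an IC50 in retests scored well above the rest, so higher reads as stronger inhibition. Values scatter widely below zero; nearly all retest evidence comes from the higher of the two concentrations used. Size under these conditions: about 64,000 compounds, about 940 of them at 50% or above in at least one test.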
B: 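Enzyme assay of the cytosolic lysyl-tRNA synthetase in 384-well plates, read by luminescence. Target: Lysine-tRNA ligase, Plasmodium falciparum 3D7 (UniProt Q8IDJ8). Compounds at 30 µM. Higher reads as stronger inhibition, judged from the few compounds that gave an IC50. About 69,000 compounds were tested under these conditions; 0.071% (about 49) showed 50% or more at least once.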
C: 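Enzyme assay of histidyl-tRNA synthetase; the read-out is not stated. Target: Histidine-tRNA ligase, Leishmania infantum (UniProt A4I591). Concentration: 30 µM. Higher reads as stronger inhibition (inferred: compounds with an IC50 in retests scored well above the rest). The assay is labelled LdHisRS but filed under L. infantum. Size under these conditions: about 69,000 compounds, about 410 of them at 50% or above in at least one test.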
D: 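Assay of Toxoplasma gondii numbers, read through their beta-galactosidase reporter with a colour substrate. Concentration: 10 µM. Higher reads as fewer parasites (inferred from which compounds were picked for retests). Of about 67,000 compounds tested this way, about 260 (0.38%) reached 50% or more in at least one test.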

The filed quantity is “Percent Effect” (%).
How 0% and 100% were set is not recorded. Most values in the screen are low, and negative values occur.
Compounds were drawn at random from those tested, without regard to their results.

Compound: Cc1cc(C)n(CC2(CNC(=O)C(c3ccccc3F)N(C)C)CC2)n1 (configuration not stated)
A: -48.39%
B: -0.4924%
C: 12.68%
D: 0.5394%

Compound: N#CC1(NC(=O)c2ccc(F)cc2OC(F)F)CCOCC1
A: -35.63%
B: 4.204%
C: 0%
D: 3.672%

Compound: Cc1csc([C@@H]2C[C@@H]3CCN(C(=O)c4ccnnc4)C[C@H]3O2)n1
B: -0.951%
C: 10.68%

Compound: COCc1nc(NC(C)c2c(C)n[nH]c2C)c2cnn(C)c2n1 (configuration not stated)
A: 5.704%
B: -0.9282%
C: 20%
D: 5.031%

Compound: [H][C@@]12CCN(Cc3ccncc3)C[C@]1([H])O[C@H](C(=O)N(C)C)C2
A: 38.55%
D: 1.843%

Compound: [H][C@]12CN(C(=O)c3cc(C)n(C)c3C)CC[C@@]1(O)CCN(S(C)(=O)=O)C2
A: -23.35%
D: 15.61%

Compound: O=C(O)C(F)(F)F.[H][C@@]12CCN(CC3CCOCC3)C[C@@]1([H])[C@H](C(=O)N1CCCO1)CCO2
A: -11.19%
D: -19.56%

Compound: COCCC(=O)N1C[C@@H](c2ccccc2F)[C@@]2(CCCC(=O)N2)C1
A: -6.395%
B: 0.3862%
C: 4.255%
D: -23.59%

Compound: O=C(O)C(F)(F)F.[H][C@]12CC[C@@]3(N=C(CC)N(CC)C3=O)[C@@]1([H])CN(Cc1ccccc1F)C2
A: -20.92%
D: -13.12%

Compound: [H][C@@]12CCN(Cc3c(C)noc3C)C[C@@]1([H])O[C@H](c1ccnc(C)n1)C2
A: 18.93%
D: -8.529%

Compound: CC(C)Cc1noc(CN2CCN(CCO)CC2)n1
A: -5.386%
B: 3.165%
C: 26.4%
D: -5.928%

Compound: CC(C)[C@H]1COC(=O)N1Cc1nnc(-c2ccccc2)o1
A: -8.453%
B: 0.07272%
C: 12%
D: -5.208%

Compound: CSC1(CNC(=O)N(C)Cc2ccc(Cl)s2)CCOCC1
A: -18.35%
B: 3.791%
C: -6.306%
D: 2.159%

Compound: Cc1cnn(CCC(=O)N2CCN(c3ncccc3Cl)CC2)c1
A: -16.5%
B: 0.9678%
C: 10.81%
D: -4.668%

Compound: O=C(O)C(F)(F)F.[H][C@@]12CCN(CCc3ccccc3)C[C@]1([H])[C@H](C(=O)NC1CC1)CCO2
A: -14.39%
D: 9.023%

Compound: NC(=O)C1CCN(CC(=O)NCCn2cc(Cl)cn2)CC1
B: -2.759%
C: 25.64%
D: -11.28%

2 of the entries, repeated:

Result for [H][C@@]12CCN(Cc3c(C)noc3C)C[C@@]1([H])O[C@H](c1ccnc(C)n1)C2 was A: 18.93%; D: -8.529%.
Result for COCc1nc(NC(C)c2c(C)n[nH]c2C)c2cnn(C)c2n1 (configuration not stated) was A: 5.704%; B: -0.9282%; C: 20%; D: 5.031%.